Test results taken from patent publication US20040091974A1.
No constants are given. Whether binding was seen depends on the method and setting. Some entries that bind do so weakly or less than the wild type.

How the values were obtained:
[1] = biological target: HLA-DR protein purified from the lymphoma cell SKW 6.4 (human); assay: Western blot of HLA-DR protein purified from SKW 6.4, nonreducing
[2] = biological target: human HLA-DR on human cells (HLA-DR positive cell strains, peripheral blood mononuclear cells, mature dendritic cells) (human); assay: flow cytometry on HLA-DR positive cells, as in Example 10
[3] = biological target: T1, 13-mer peptide, amino acids 63 to 75 of the HLA-DR β chain (DRB1*15011) (human); assay: SPOT 13-mer peptide array on cellulose membrane, chemiluminescence
T1 sequence (peptide, N-terminus acetylated; bound to a cellulose membrane through the C-terminus): SQKDILEQARAAV

binding [1]: binds
binding [2]: binds
binding [3]: binds
B1: HD8 (antibody, IgG2, V domains shown)
VH: QVQLQHSGPGLVKPSQTLSLTCAISGDSVSSNSASWNWIRQSPSRGLEWLGRTYYRSKWYNDYAVSVKSRIVINPDTSKNQFSLQLNSVTPEDTAVYYCARENFYGSETCHKKYYCYGMDVWGQGTTVTVSS
VL: AIQLTQSPSSLSASVGDRVTITCRASQGISSALAWYQQKPGKAPKLLIYDASSLESGVPSRFSGSGSGTDFTLTISSLQPEDFATYYCQQFNSFPLTFGGGTKVEIK
